The text below walks through data of publication PMC8795376.

Protein sequences, listed by entry. Tags and fused reporters are not part of them. Residues count along the entry.
UniProt O43567, residues 35-381: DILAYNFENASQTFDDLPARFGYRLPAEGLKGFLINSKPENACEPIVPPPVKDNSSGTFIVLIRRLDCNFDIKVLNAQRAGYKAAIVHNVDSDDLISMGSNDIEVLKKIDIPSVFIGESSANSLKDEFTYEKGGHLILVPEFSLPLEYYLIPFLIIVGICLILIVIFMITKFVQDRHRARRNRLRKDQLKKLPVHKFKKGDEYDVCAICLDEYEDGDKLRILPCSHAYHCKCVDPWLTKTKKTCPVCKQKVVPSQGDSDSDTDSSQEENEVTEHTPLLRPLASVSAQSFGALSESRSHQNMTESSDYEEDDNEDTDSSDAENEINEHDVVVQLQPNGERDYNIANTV

No constants are given. Whether binding was seen depends on the method and setting. For some of these results: In cells and extracts the contact can be indirect. Some entries that bind do so weakly or less than the wild type. For some of these results: Tags and fused reporters may be left off the sequences shown.

One assay concerns the target HaloTag-fused RNF13 (UniProt O43567). The assay is described as follows: co-IP; HepG2 cells expressing the indicated proteins (HT-RNF13, wild-type or CRD-deleted GAL9), precipitated with anti-HT antibody, immunoblotting.
For assay [1], the target named is FLAG-GAL9 (galectin-9) (human) (UniProt O00182). The assay is described as follows: co-IP; HepG2 cells expressing FLAG-GAL9 and the indicated HaloTag-fused proteins; lysates precipitated with anti-FLAG antibody, immunoblotting.
Assay [2] deals with GAL9 (galectin-9), recombinant (UniProt O00182). As to the kind of experiment: pull-down; in vitro pull-down with recombinant HBc and GAL9 incubated with viperin; anti-HBc antibody; 37 °C, 1 h, Tris buffer pH 7.5; both purified.
Assay [3] deals with GFP-GAL9 (galectin-9) (human) (UniProt O00182). The assay is described as follows: co-IP; HepG2 cells expressing viperin truncated mutants and HA-HBc or GFP-GAL9; lysates precipitated with anti-HA or anti-GFP antibodies, immunoblotting.

With “p62 (SQSTM1) found with HT-RNF13 (from UniProt Q13501 1-440)”, the binding result with HaloTag-fused RNF13 is reported as “binds”.

Consider “HaloTag-fused p62 (SQSTM1) (from UniProt Q13501 1-440)”, for which the binding entry in assay [1] was “binds”.

B1: viperin, recombinant (protein, UniProt Q8WXG1 1-361)
chain: MWVLTPAAFAGKLLSVFRQPLSSLWRSLVPLFCWLRATFWLLATKRRKQQLVLRGPDETKEEEEDPPLPTTPTSVNYHFTRQCNYKCGFCFHTAKTSFVLPLEEAKRGLLLLKEAGMEKINFSGGEPFLQDRGEYLGKLVRFCKVELRLPSVSIVSNGSLIRERWFQNYGEYLDILAISCDSFDEEVNVLIGRGQGKKNHVENLQKLRRWCRDYRVAFKINSVINRFNVEEDMTEQIKALNPVRWKVFQCLLIEGENCGEDALREAERFVIGDEEFERFLERHKEVSCLVPESNQKMKDSYLILDEYMRFLNCRKGRKDPSKSILDVGVEEAIKFSGFDEKMFLKRGGKYIWSKADLKLDW
With B1, the binding entry in assay [2] is “binds”.

B2: HaloTag-fused viperin (protein, UniProt Q8WXG1 1-361)
chain: MWVLTPAAFAGKLLSVFRQPLSSLWRSLVPLFCWLRATFWLLATKRRKQQLVLRGPDETKEEEEDPPLPTTPTSVNYHFTRQCNYKCGFCFHTAKTSFVLPLEEAKRGLLLLKEAGMEKINFSGGEPFLQDRGEYLGKLVRFCKVELRLPSVSIVSNGSLIRERWFQNYGEYLDILAISCDSFDEEVNVLIGRGQGKKNHVENLQKLRRWCRDYRVAFKINSVINRFNVEEDMTEQIKALNPVRWKVFQCLLIEGENCGEDALREAERFVIGDEEFERFLERHKEVSCLVPESNQKMKDSYLILDEYMRFLNCRKGRKDPSKSILDVGVEEAIKFSGFDEKMFLKRGGKYIWSKADLKLDW
With B2, the binding result in assay [3] was “binds”.
